In patent publication US20240110220A1, “DETECTING BETA-LACTAMASE ENZYME ACTIVITY” (COMMISSARIAT A L'ENERGIE ATOMIQUE ET AUX ENERGIES …, priority 2021, published 2024):
This continues a long series; more values of the same kind are listed elsewhere.

Test system: bacterial colonies
Test: Validation of the rapid test strip on bacterial colonies sensitive or resistant to third-generation cephalosporins (Table 12)
Type: biochemical
Design: key: A signal on the TL is considered as “P”; An absence of signal on the TL is defined as “N”
Procedure: In order to validate the test strip on bacterial colonies for its clinical use, […].
In order to carry out these tests, all of the solutions below have been prepared in the buffer strip having, for composition: 0.1 M pH 8 Tris buffer/HCL+0.15 M NaCl+0.5% Tween 20+1% chaps+0.01% sodium azide. […] The tracer is in dried format on the CP. […] A CL was produced. It consists of anti-tracer antibodies. The migration is carried out in a plastic cassette.
A bacterial colony was sampled from an URI-4 agar with a 1 μl ose, then deposited in the previously prepared Eppendorf tube. The tube was vortexed for five seconds, then incubated for 30 minutes at ambient temperature. Once the incubation was finished, 100 μl was sampled and deposited on the test strip. The reading is carried out after 10 minutes migration. A signal on the TL is considered as “P”. An absence of signal on the TL is defined as “N”.

## CO/N=C(\C(=O)N[C@@H]1C(=O)N2C(C(=O)O)=C(COC(C)=O)CS[C@H]12)c1csc(N)n1 [non-hydrolysed cefotaxime, cefotaxime]
A. baumannii, CTX-M-15, isolate number 1, strains capable of hydrolysing cefotaxime
  results of the test: P
A. baumannii, GES-11 + OXA-23, isolate number 1, strains capable of hydrolysing cefotaxime
  results of the test: P
A. baumannii, GES-11 + OXA-64, isolate number 1, strains capable of hydrolysing cefotaxime
  results of the test: P
A. baumannii, GES-11 + OXA-98, isolate number 1, strains capable of hydrolysing cefotaxime
  results of the test: P
A. baumannii, GES-11, isolate number 1, strains capable of hydrolysing cefotaxime
  results of the test: P
A. baumannii, GES-12 + OXA-51, isolate number 3, strains capable of hydrolysing cefotaxime
  results of the test: P
A. baumannii, GES-12, isolate number 1, strains capable of hydrolysing cefotaxime
  results of the test: P
A. baumannii, GES-14 + OXA 23, isolate number 1, strains capable of hydrolysing cefotaxime
  results of the test: P
A. baumannii, GES-14, isolate number 3, strains capable of hydrolysing cefotaxime
  results of the test: P
A. baumannii, IMP-1, isolate number 2, strains capable of hydrolysing cefotaxime
  results of the test: P
A. baumannii, IMP-4, isolate number 1, strains capable of hydrolysing cefotaxime
  results of the test: P
A. baumannii, N/A, isolate number 2, strains not capable of hydrolysing cefotaxime
  results of the test: N
A. baumannii, NDM-1 + OXA 23, isolate number 5, strains capable of hydrolysing cefotaxime
  results of the test: P
A. baumannii, NDM-1 + OXA-51, isolate number 1, strains capable of hydrolysing cefotaxime
  results of the test: P
A. baumannii, NDM-1, isolate number 2, strains capable of hydrolysing cefotaxime
  results of the test: P
A. baumannii, NDM-2, isolate number 1, strains capable of hydrolysing cefotaxime
  results of the test: P
A. baumannii, NDM, isolate number 1, strains capable of hydrolysing cefotaxime
  results of the test: P
A. baumannii, OXA-13, isolate number 1, strains not capable of hydrolysing cefotaxime
  results of the test: N
A. baumannii, OXA-14, isolate number 1, strains capable of hydrolysing cefotaxime
  results of the test: P
A. baumannii, OXA-18 + OXA-20, isolate number 1, strains capable of hydrolysing cefotaxime
  results of the test: P
A. baumannii, OXA-21, isolate number 1, strains not capable of hydrolysing cefotaxime
  results of the test: N
A. baumannii, OXA-23, isolate number 4, strains capable of hydrolysing cefotaxime
  results of the test: P
A. baumannii, OXA-24 + OXA-40, isolate number 1, strains capable of hydrolysing cefotaxime
  results of the test: P
A. baumannii, OXA-51, isolate number 1, strains capable of hydrolysing cefotaxime
  results of the test: P
A. baumannii, OXA-58, isolate number 1, strains capable of hydrolysing cefotaxime
  results of the test: P
A. baumannii, OXA-66, isolate number 1, strains capable of hydrolysing cefotaxime
  results of the test: P
A. baumannii, OXA-72, isolate number 1, strains capable of hydrolysing cefotaxime
  results of the test: P
A. baumannii, OXA-97, isolate number 1, strains capable of hydrolysing cefotaxime
  results of the test: P
A. baumannii, OXA-143, isolate number 1, strains capable of hydrolysing cefotaxime
  results of the test: P
A. baumannii, OXA-253, isolate number 1, strains capable of hydrolysing cefotaxime
  results of the test: P
A. baumannii, Overexpressed AmpC + OXA-23, isolate number 1, strains capable of hydrolysing cefotaxime
  results of the test: P
A. baumannii, PER-1, isolate number 1, strains capable of hydrolysing cefotaxime
  results of the test: P
A. baumannii, RTG-4, isolate number 1, strains not capable of hydrolysing cefotaxime
  results of the test: N
A. baumannii, SCO-1, isolate number 1, strains capable of hydrolysing cefotaxime
  results of the test: P
A. baumannii, SHV-5 + OXA-51, isolate number 1, strains capable of hydrolysing cefotaxime
  results of the test: P
A. baumannii, SHV-5, isolate number 1, strains capable of hydrolysing cefotaxime
  results of the test: P
A. baumannii, SIM-1, isolate number 1, strains capable of hydrolysing cefotaxime
  results of the test: P
A. baumannii, TEM, isolate number 1, strains capable of hydrolysing cefotaxime
  results of the test: P
A. baumannii, VEB-1 + OXA-10 + OXA-69, isolate number 1, strains capable of hydrolysing cefotaxime
  results of the test: P
A. baumannii, VEB-1, isolate number 1, strains capable of hydrolysing cefotaxime
  results of the test: P
A. genomospecies, VIM-4, isolate number 1, strains capable of hydrolysing cefotaxime
  results of the test: P
A. xylosoxidans, VIM-1, isolate number 1, strains capable of hydrolysing cefotaxime
  results of the test: P
E coli, CTX-M-3, isolate number 1, strains capable of hydrolysing cefotaxime
  results of the test: P
E. aerogenes, TEM-24, isolate number 2, strains capable of hydrolysing cefotaxime
  results of the test: P
E. cloacae, CTX-M-15 + Overexpressed AmpC, isolate number 1, strains capable of hydrolysing cefotaxime
  results of the test: P
E. cloacae, NmcA + Overexpressed AmpC, isolate number 1, strains capable of hydrolysing cefotaxime
  results of the test: P
E. cloacae, SHV + GES-5, isolate number 1, strains capable of hydrolysing cefotaxime
  results of the test: P
E. cloacae, SHV + OXA-163, isolate number 1, strains capable of hydrolysing cefotaxime
  results of the test: P
E. cloacae, SHV-5 + OXA-48, isolate number 1, strains capable of hydrolysing cefotaxime
  results of the test: P
E. cloacae, SHV-12 + IMP-8, isolate number 1, strains capable of hydrolysing cefotaxime
  results of the test: P
E. cloacae, SHV-70 + VIM-1, isolate number 1, strains capable of hydrolysing cefotaxime
  results of the test: P
E. cloacae, TEM-1 + KPC-2 + OXA-1, isolate number 1, strains capable of hydrolysing cefotaxime
  results of the test: P
E. cloacae, TEM-1 + KPC-2, isolate number 1, strains capable of hydrolysing cefotaxime
  results of the test: P
E. cloacae, VIM-4 + OXA-48, isolate number 1, strains capable of hydrolysing cefotaxime
  results of the test: P
E. coli, ACC-1, isolate number 1, strains capable of hydrolysing cefotaxime
  results of the test: P
E. coli, CMY + VIM-4, isolate number 1, strains capable of hydrolysing cefotaxime
  results of the test: P
E. coli, CMY-2 + OXA-244, isolate number 1, strains capable of hydrolysing cefotaxime
  results of the test: P
E. coli, CMY-13 + VIM-1, isolate number 1, strains capable of hydrolysing cefotaxime
  results of the test: P
E. coli, CMY-136, isolate number 1, strains capable of hydrolysing cefotaxime
  results of the test: P
E. coli, CTX-M + MCR-3.2, isolate number 1, strains capable of hydrolysing cefotaxime
  results of the test: P
E. coli, CTX-M + NDM-19, isolate number 1, strains capable of hydrolysing cefotaxime
  results of the test: P
E. coli, CTX-M-1, isolate number 3, strains capable of hydrolysing cefotaxime
  results of the test: P
E. coli, CTX-M-2 + MCR-1, isolate number 1, strains capable of hydrolysing cefotaxime
  results of the test: P
E. coli, CTX-M-2, isolate number 3, strains capable of hydrolysing cefotaxime
  results of the test: P
E. coli, CTX-M-8, isolate number 1, strains capable of hydrolysing cefotaxime
  results of the test: P
E. coli, CTX-M-10, isolate number 1, strains capable of hydrolysing cefotaxime
  results of the test: P
E. coli, CTX-M-13 + CMY, isolate number 1, strains capable of hydrolysing cefotaxime
  results of the test: P
E. coli, CTX-M-14, isolate number 2, strains capable of hydrolysing cefotaxime
  results of the test: P
E. coli, CTX-M-15 + OXA-48, isolate number 1, strains capable of hydrolysing cefotaxime
  results of the test: P
E. coli, CTX-M-15, isolate number 5, strains capable of hydrolysing cefotaxime
  results of the test: P
E. coli, CTX-M-17, isolate number 1, strains capable of hydrolysing cefotaxime
  results of the test: P
E. coli, CTX-M-24, isolate number 2, strains capable of hydrolysing cefotaxime
  results of the test: P
E. coli, CTX-M-27, isolate number 2, strains capable of hydrolysing cefotaxime
  results of the test: P
E. coli, CTX-M-32, isolate number 1, strains capable of hydrolysing cefotaxime
  results of the test: P
E. coli, CTX-M-37, isolate number 1, strains capable of hydrolysing cefotaxime
  results of the test: P
E. coli, CTX-M-55, isolate number 2, strains capable of hydrolysing cefotaxime
  results of the test: P
E. coli, CTX-M-57, isolate number 1, strains capable of hydrolysing cefotaxime
  results of the test: P
E. coli, CTX-M-65, isolate number 2, strains capable of hydrolysing cefotaxime
  results of the test: P
E. coli, CTX-M-71, isolate number 1, strains capable of hydrolysing cefotaxime
  results of the test: P
E. coli, CTX-M-82, isolate number 1, strains capable of hydrolysing cefotaxime
  results of the test: P
E. coli, CTX-M-100, isolate number 1, strains capable of hydrolysing cefotaxime
  results of the test: P
E. coli, CTX-M-101, isolate number 1, strains capable of hydrolysing cefotaxime
  results of the test: P
E. coli, CTX-M-182, isolate number 1, strains capable of hydrolysing cefotaxime
  results of the test: P
E. coli, DHA-1, isolate number 1, strains capable of hydrolysing cefotaxime
  results of the test: P
E. coli, ESBL + MCR-1, isolate number 1, strains capable of hydrolysing cefotaxime
  results of the test: P
E. coli, ESBL + Mutation PmrB (G160E), isolate number 1, strains capable of hydrolysing cefotaxime
  results of the test: P
E. coli, IMP-1, isolate number 1, strains capable of hydrolysing cefotaxime
  results of the test: P
E. coli, IMP-14, isolate number 1, strains capable of hydrolysing cefotaxime
  results of the test: P
E. coli, KPC-2, isolate number 1, strains capable of hydrolysing cefotaxime
  results of the test: P
E. coli, KPC-3, isolate number 1, strains capable of hydrolysing cefotaxime
  results of the test: P
E. coli, KPC-5, isolate number 1, strains capable of hydrolysing cefotaxime
  results of the test: P
